Experiment [1] concerns male and female CD-1 mice. Put plainly: Tail flick (TF) antinociception. The following applies: for ED50: Mus musculus, sc. Format: in vivo. From the text: using the microdialysis probe recovery rate. All data are presented as mean ± SEM.
For the dialysate, the mean
Animals: Male and female CD-1 and DBA mice, 21–29 g at testing, were obtained from Charles River (Wilmington, MA) and housed in a 12-h light/dark cycle. All experiments were approved by the Tulane Institutional Animal Care and Use Committee and conducted according to the NIH Guide for the Care and Use of Laboratory Animals. All efforts were made to minimize animal suffering and to reduce the number of animals used.
Tail Flick (TF): CD1 mice were used for this test. The latency to withdraw the tail from a heat source was automatically measured (IITC, Woodland Hills, CA). […]
with a cutoff time of 9 s to prevent tissue damage. Percent Maximum Possible Effect (%MPE) was determined as [(latency-baseline latency)/(9-baseline latency)]*100. […]
(§1) calculated and used as the peak response for determining ED50’s. Initial tests, based on previous studies with ZH853, were 3h in duration.
(§2) Additional subgroups (n = 4-5) were therefore tested for 5h. […] For the time course (Figure 3) […]
(§3) animals were used. Duration of antinociception was assessed using both the area under the curve (AUC) and duration of antinociception, calculated as the time from the first to the last time point greater than or equal to 50% MPE.
(§4) Hot Plate (HP) Test: This test reflects a supraspinally organized complex response, 6 and was used to assess the CNS activation of antinociception by peripherally (s.c.) administered […]
(§5) to reduce test compound requirements. The HP apparatus (IITC, Woodland Hills, CA) was set to 55.5°C, a temperature that elicited a response after 7-9 sec. Three baseline HP latencies to rapidly lift, lick, or shake the hind paws were taken prior to drug injection. Mice were removed from the HP after a maximum of 30 sec. Mice were injected with several analogs (0–5.6 mg/kg s.c.) and tested from 30–300 min after injection.
(%MPE) as described for TF.

A further experiment has as its system male and female DBA mice. The experiment can be described thus: animal or person. The format is in vivo. How it is done: as §1, §2, §3, §4, §5
(%MPE) as described for TF. […]
each of those respective times was therefore calculated and used as the peak response for determining ED50’s. These values were used to calculate area under the curve (AUC). The duration of antinociception greater than 50% MPE was calculated as with TF.
Figure S3. Microdialysis and Pharmacokinetics Experiment Scheme.
Scheme depicts catheterization and microdialysis of the rat striatum. […]
endomorphin-1 analog (10 mg/kg; i.v.) ZH853 = ZH853•HCl (10 mg/kg; i.v.); aCSF = artificial cerebrospinal fluid. Created with BioRender.com (Agreement number MH26RXD2YP).
(1 picture or pasted object on this page, not shown here)

Values joined by “and” are separate entries in the source; they are usually repeats but may differ in a detail not shown here. Equal values may be shown once. Read-outs that look alike come from different tables or passages of the source.

A word on the ED50: it is the dose that gives a 50% effect, or the effect in half of the subjects. For the compound `CN1CC[C@]23c4c5ccc(O)c4O[C@H]2[C@@H](O)C=C[C@H]3[C@H]1C5` [morphine], the ED50 in experiment [1] (male CD-1 mice, %MPE at peak response, read-out: Tail flick ED50 Male) is 1.25 ± 0.11 mg/kg; in experiment [1] (mean of male and female, read-out: Tail flick ED50 Mean M&F), 4.22 µmol/kg and 1.41 mg/kg; in the experiment on male and female DBA mice (Mus musculus, sc, mean of male and female, read-out: Hot plate ED50 Mean M&F), 7.71 µmol/kg and 2.57 mg/kg. Also, the “Tail flick Potency vs control ZH853/analog” value in experiment [1] (ratio of ED50, mg/kg basis) worked out at 1.43; in experiment [1] (ratio of ED50, μmol/kg basis), 0.55. In addition, the “Hot plate Potency vs control ZH853/analog” value in the experiment on male and female DBA mice (ratio of ED50, mg/kg basis) turned out to be 0.85; in the experiment on male and female DBA mice (ratio of ED50, μmol/kg basis), 0.33.

The values above are taken from PMC11472388 (ACS Medicinal Chemistry Letters, 2024).
